Source: paper PMC6943233, “Disorder‐to‐order transition in PE–PPE proteins of Mycobacterium tuberculosis augments the pro‐pathogen immune response” (FEBS Open Bio, 2019)
These are yes or no findings as the source states them, for the method shown. Some entries that bind do so weakly or less than the wild type. Sequences can lack the tags named with a protein.

By UniProt entry, the sequences of proteins in these tests, tags left out.
UniProt I6YGS7: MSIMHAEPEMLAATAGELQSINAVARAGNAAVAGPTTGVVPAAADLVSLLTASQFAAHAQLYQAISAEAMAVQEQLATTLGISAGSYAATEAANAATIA

Legend:
[1] = target: T1, PPE65 (Mycobacterium tuberculosis) (UniProt P9WHX2); test: other fluorescence titration; intrinsic fluorescence of the PPE protein (10 μg) with the tryptophan-free PE protein added (10 and 30 μg); excitation 280 nm, emission 300-340 nm, 25 ± 0.1 °C; both purified
T1 sequence: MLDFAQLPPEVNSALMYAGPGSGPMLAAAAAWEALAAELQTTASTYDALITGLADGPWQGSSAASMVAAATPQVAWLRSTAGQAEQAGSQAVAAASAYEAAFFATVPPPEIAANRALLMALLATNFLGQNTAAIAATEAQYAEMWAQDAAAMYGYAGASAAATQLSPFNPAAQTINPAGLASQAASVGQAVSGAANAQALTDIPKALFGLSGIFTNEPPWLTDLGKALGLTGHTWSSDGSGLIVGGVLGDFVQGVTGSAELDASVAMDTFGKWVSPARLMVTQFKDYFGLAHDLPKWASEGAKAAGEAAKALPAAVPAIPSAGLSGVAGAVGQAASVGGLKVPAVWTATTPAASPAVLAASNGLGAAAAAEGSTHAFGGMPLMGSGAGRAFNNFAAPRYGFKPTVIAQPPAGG

[2] = target: T1, PPE65 (Mycobacterium tuberculosis); test: FTIR spectroscopy; both proteins mixed in equal amount in 1× PBS and incubated for 1 h at 4 °C; ATR-FTIR of the liquid sample at room temperature; secondary structure of the mixture compared with the single proteins; both purified

PE32 (from UniProt I6YGS7 1-99)
binding [1]: binds | binding [2]: binds
